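Engineered human kidney cells report androgen receptor blocking through a beta-lactamase signal ratio read at 16 h. Potency is fitted over a dilution series that mostly tops out at 76.8 µM. Fitted potency; a lower value means a more potent compound. Calls come from the fitted dose curve, and inconclusive covers weak, poorly fitted, top-dose-only, or opposite-direction effects.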

By UniProt entry, the sequences of proteins in these tests, tags left out.
UniProt P10275, whole entry, target on record: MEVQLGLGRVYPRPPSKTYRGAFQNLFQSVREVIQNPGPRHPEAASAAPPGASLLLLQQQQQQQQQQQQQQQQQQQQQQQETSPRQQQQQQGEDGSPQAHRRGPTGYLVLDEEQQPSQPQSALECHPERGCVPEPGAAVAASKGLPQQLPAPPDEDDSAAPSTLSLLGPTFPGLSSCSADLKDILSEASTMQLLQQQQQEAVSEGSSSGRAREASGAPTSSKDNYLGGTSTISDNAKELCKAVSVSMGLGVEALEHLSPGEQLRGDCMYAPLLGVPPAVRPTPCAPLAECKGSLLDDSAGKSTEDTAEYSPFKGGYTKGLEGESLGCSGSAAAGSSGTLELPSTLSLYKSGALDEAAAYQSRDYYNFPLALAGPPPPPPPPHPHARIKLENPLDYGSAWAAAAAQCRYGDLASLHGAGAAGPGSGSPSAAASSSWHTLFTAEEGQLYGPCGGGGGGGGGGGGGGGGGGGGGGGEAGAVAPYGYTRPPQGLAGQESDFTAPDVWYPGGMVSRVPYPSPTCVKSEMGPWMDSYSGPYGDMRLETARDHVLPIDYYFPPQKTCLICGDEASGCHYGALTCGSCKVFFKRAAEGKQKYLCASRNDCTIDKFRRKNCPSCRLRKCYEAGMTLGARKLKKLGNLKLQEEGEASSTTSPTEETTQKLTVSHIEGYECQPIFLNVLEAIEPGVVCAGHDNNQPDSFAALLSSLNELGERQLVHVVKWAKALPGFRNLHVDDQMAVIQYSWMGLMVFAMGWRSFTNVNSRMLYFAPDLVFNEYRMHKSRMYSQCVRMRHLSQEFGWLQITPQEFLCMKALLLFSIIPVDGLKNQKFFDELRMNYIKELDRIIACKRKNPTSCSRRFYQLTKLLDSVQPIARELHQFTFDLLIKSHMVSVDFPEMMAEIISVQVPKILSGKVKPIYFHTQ

Values are in µM. All entries here are filed as inconclusive. These entries are mostly ones the record files as inconclusive; other results of the assay are not listed here. Potencies fitted to partial, single-point or poorly fitting curves are rough. The first word of each remark tells which way the curve ran; it can be opposite to the aim of the assay. An entry listed twice with the same setting is a separate test.

| structure | fitted potency (µM) | curve |
|---|---|---|
| `CCOc1nc(NC)nc(NC(=O)NS(=O)(=O)c2ccccc2C(=O)OC)n1` | 0.0016 | inhibitor, full curve, poor fit |
| `CCCCNC(=O)n1c(NC(=O)OC)nc2ccccc21` | 3.162 | inhibitor, full curve, poor fit |
| `CCCCCCc1ccc(O)cc1O` | 7.943 | inhibitor, partial curve, poor fit |
| `C=CC(=O)OCCCCCCOC(=O)C=C` | 6.31 | inhibitor, partial curve, poor fit |
| `O=C(O)/C=C/c1ccc(/C=C/C(=O)O)cc1` | 0.0025 | inhibitor, full curve, poor fit |
| `Nc1nc(N)c2nc(-c3ccccc3)c(N)nc2n1` | 44.67 | activator, single point |
| `C=CC(=O)OCCCCCCOC(=O)C=C` | 56.23 | inhibitor, partial curve, poor fit |
| `COC(=O)Nc1nc2ccccc2[nH]1` | 7.943 | inhibitor, partial curve |
| `Cc1cc(O)c(C(C)(C)C)cc1Sc1cc(C(C)(C)C)c(O)cc1C` | 44.67 | inhibitor, partial curve, poor fit |
| `CC(C)(O)CCC(C)(C)O` | 7.943 | inhibitor, partial curve, poor fit |
| `Nc1ccc([N+](=O)[O-])cc1[N+](=O)[O-]` | 0.0447 | inhibitor, full curve, poor fit |
| `CCCCC(CC)COC(=O)c1ccc(C(=O)OCC(CC)CCCC)c(C(=O)OCC(CC)CCCC)c1` (centres undefined) | 10 | inhibitor, partial curve, poor fit |

Once more, the final 2:

* Nc1ccc([N+](=O)[O-])cc1[N+](=O)[O-] : fitted potency 0.0447 µM (inhibitor, full curve, poor fit)
* CCCCC(CC)COC(=O)c1ccc(C(=O)OCC(CC)CCCC)c(C(=O)OCC(CC)CCCC)c1 (centres undefined) : fitted potency 10 µM (inhibitor, partial curve, poor fit)

Data taken from PubChem BioAssay AID588516, deposited by NCATS (2011).